# This is a selection; strong and weak results do not stand in their true shares. At the low end of the ranking the order means little.
# Biological target: SPI1 (UniProt P17947)
# Assay: DAPPL (digital affinity profiling via proximity ligation, sequencing)
# Settings: 10 mM Tris-HCl pH 7.5, 50 mM NaCl, 1 mM DTT, 4% glycerol, room temperature, 30 min; GST-TFs on glutathione beads, 16-mer random dsDNA library, 0.1% …; high values mean tight binding; double strand, one strand shown; scale: fold enrichment (6-mer frequency, TF over GST control)
row,Sequence,binding signal
1,AGAGAT,0.912
2,ATCTTA,1.01
3,GTAATT,1.25
4,TAGAAC,0.98
5,TGCCTT,1.44
6,AGCTCG,0.993
7,CTAGAA,0.991
8,TTTGTT,1.22
9,AGAAGG,0.715
10,TACGAG,0.904
11,AAGGGA,1.07
12,TTTCAA,1.32
13,GACATG,0.95
14,AACGAT,1.17
15,TCTCCA,1.57
16,GGCCTT,1.18
17,ATAATA,1.18
18,GCAGAT,0.924
19,CGCCGG,0.985

# Some of the entries so far, with bars between the fields:
row | Sequence | binding signal
7 | CTAGAA | 0.991
10 | TACGAG | 0.904

# Next part

row,Sequence,binding signal
1,ACACTC,1.09
2,TGGCAC,1.14
3,ACGCTC,0.984
4,AGTTAC,0.996
5,CCAGAT,0.841
6,AGTACT,1.25
7,CTCGAA,1.17
8,GCCTGG,0.878
9,GGCAGC,0.8
10,AGGTTT,1.06
11,CGGATC,0.92
12,CGGACC,0.764
13,ACTCGG,0.972
14,GGAAGA,1.17
15,TCCGCC,1.48
16,GCAAGC,0.914
17,CACCCA,0.968
18,GCAACT,1.23
19,TAGGAA,1.23

# Reference: paper PMC7862700
